From PMC6199744, “Development of Chemical Proteomics for the Folateome and Analysis of the Kinetoplastid Folateome” (ACS Infectious Diseases, 2018)
The source gives many values for each of these; only a part stands here.

System: L. major lysate proteins
Assay: Multitargeted bead mixture chemoproteomics, single concentration competition, proteome-wide
Assay type: binding

SMILES: Nc1nc2[nH]cc(CCc3ccc(C(=O)N[C@@H](CCC(=O)O)C(=O)O)cc3)c2c(=O)[nH]1 [PTX, pemetrexed]
- fold change vs vehicle control (protein LMJF.32.0520 PROFILIN, PUTATIVE): 0.94
- fold change (protein LMJF.32.1000 […]-COMPLEX PROTEIN, PUTATIVE, vehicle control = 1): 0.99
- fold change (protein LMJF.32.3010 HY[…], CONSERVED,LEUCINE-RICH REPEAT PROTEIN, PUTATIVE, vehicle control = 1): 0.85
- fold change (protein LMJF.32.3270 […] SUBUNIT, PUTATIVE, vehicle control = 1): 1.01
- fold change (protein LMJF.32.3310 DIHYDROLIPOAMIDE DEHYDROGENASE, PUTATIVE, vehicle control = 1): 1.03
- fold change (protein LMJF.33.1930 PHOSPHORIBOSYLPYR[…], PUTATIVE, vehicle control = 1): 1.04
- fold change (protein LMJF.33.2060 HY[…], CONSERVED, vehicle control = 1): 0.97
- fold change (protein LMJF.33.2300 UDP-GLC 4'-EPIMERASE, PUTATIVE, vehicle control = 1): 1.03
- fold change (protein LMJF.33.2390 HEAT SHOCK PROTEIN, PUTATIVE, vehicle control = 1): 0.98
- fold change (protein LMJF.33.2410 HY[…], CONSERVED, vehicle control = 1): 0.85
- fold change (protein LMJF.34.0840 T[…] 1-BETA, PUTATIVE, vehicle control = 1): 1.03
- fold change (protein LMJF.34.0930 HY[…], CONSERVED, vehicle control = 1): 0.95
- fold change (protein LMJF.34.2340 ASPARAGINYL-TRNA SYNTHETASE, PUTATIVE, vehicle control = 1): 0.9
- fold change (protein LMJF.34.2610 ATP-DEPENDENT DNA HELICASE, PUTATIVE,RUVB DNA HELICASE-LIKE PROTEIN, PUTATIVE, vehicle control = 1): 1.07
- fold change (protein LMJF.34.2820 REGULATORY SUBUNIT OF PROTEIN KINASE A-LIKE PROTEIN, vehicle control = 1): 0.87
- fold change (protein LMJF.34.3500 RUVB-LIKE 1 DNA HELICASE, PUTATIVE, vehicle control = 1): 0.92
- fold change (protein LMJF.34.3670 VACUOLAR ATP SYNTHASE CATALYTIC SUBUNIT A, PUTATIVE, vehicle control = 1): 0.98
- fold change (protein LMJF.34.4120 HY[…], CONSERVED, vehicle control = 1): 0.86
- fold change (protein LMJF.35.0030 PYRUVATE KINASE, vehicle control = 1): 1.02
- fold change (protein LMJF.35.0240 60S RIBOSOMAL PROTEIN L30, vehicle control = 1): 1.15
- fold change (protein LMJF.35.0760 CBS DOMAIN PROTEIN, CONSERVED, vehicle control = 1): 0.77
- fold change (protein LMJF.35.0820 ASPARTATE AMINOTRANSFERASE, PUTATIVE, vehicle control = 1): 0.94
- fold change vs vehicle control (protein LMJF.35.1410 THREONYL-TRNA SYNTHETASE, PUTATIVE): 1.01
- fold change (protein LMJF.35.1720 CYCLOPHILIN 14, PUTATIVE, vehicle control = 1): 0.79
- fold change (protein LMJF.35.2730 ACYL-COA DEHYDROGENASE, PUTATIVE, vehicle control = 1): 1
- fold change (protein LMJF.35.3080 GLYCEROL KINASE, GLYCOSOMAL, PUTATIVE, vehicle control = 1): 0.94
- fold change (protein LMJF.35.3100 ATP-DEPENDENT RNA HELICASE, PUTATIVE, vehicle control = 1): 0.99
- fold change (protein LMJF.35.3230 C[…] LYASE, PUTATIVE, vehicle control = 1): 0.92
- fold change (protein LMJF.35.3790 60S RIBOSOMAL PROTEIN L23, PUTATIVE, vehicle control = 1): 1.14
- fold change (protein LMJF.35.4130 POLY(A)-BINDING PROTEIN 2, vehicle control = 1): 1.02
- fold change (protein LMJF.35.4850 […] 1 SUBUNIT, PUTATIVE, vehicle control = 1): 0.86
- fold change (protein LMJF.36.0180 […] 2, vehicle control = 1): 1.02
- fold change (protein LMJF.36.0210 SET DOMAIN PROTEIN, PUTATIVE, vehicle control = 1): 1.09
- fold change (protein LMJF.36.0740 HY[…], CONSERVED, vehicle control = 1): 1.12
- fold change vs vehicle control (protein LMJF.36.0900 PROTEIN KINASE, PUTATIVE,SNF1-RELATED PROTEIN KINASES, PUTATIVE): 0.89
- fold change (protein LMJF.36.1430 T[…] 1-BETA, PUTATIVE, vehicle control = 1): 0.98
- fold change (protein LMJF.36.1940 INOSINE-GUANOSINE TRANSPORTER, vehicle control = 1): 0.99
- fold change (protein LMJF.36.2020 CHAPERONIN HSP60, MIT[…], vehicle control = 1): 1.05
- fold change vs vehicle control (protein LMJF.36.3530 POLYUBIQUITIN, PUTATIVE): 1.02
- fold change (protein LMJF.36.4360 […] SUBUNIT, vehicle control = 1): 1.05
- fold change (protein LMJF.36.4420 60S RIBOSOMAL PROTEIN L22, PUTATIVE, vehicle control = 1): 0.98
- fold change (protein LMJF.36.4460 HY[…], CONSERVED, vehicle control = 1): 0.95
- fold change (protein LMJF.36.5940 HY[…], CONSERVED, vehicle control = 1): 0.89
- fold change (protein LMJF.36.6910 T-COMPLEX PROTEIN 1, THETA SUBUNIT, PUTATIVE,CHAPERONIN, PUTATIVE, vehicle control = 1): 1
- fold change (vs vehicle control, protein CLM00008612.1 UNNAMED PROTEIN PRODUCT): 0.79
- fold change (vs vehicle control, protein LINJ.20.0820 VESICLE-FUSING ATPASE, PUTATIVE,N-ETHYLMALEIMIDE-SENSITIVE FACTOR, PUTATIVE): 0.83
- fold change (vs vehicle control, protein LINJ.36.1160 RIBOSOMAL PROTEIN L24, PUTATIVE): 0.99
- fold change (vs vehicle control, protein LMJF.02.0370 […]-ATPASE SUBUNIT 6, PUTATIVE): 0.84
- fold change (vs vehicle control, protein LMJF.05.0380 MICROTUBULE-ASSOCIATED PROTEIN, PUTATIVE): 0.72
- fold change (vs vehicle control, protein LMJF.05.0780 HY[…], CONSERVED): 0.96
- fold change (vs vehicle control, protein LMJF.06.0010 HISTONE H4): 0.93
- fold change (vs vehicle control, protein LMJF.06.0370 GLUTAMINE SYNTHETASE, PUTATIVE): 0.9
- fold change (vs vehicle control, protein LMJF.07.0460 ACYL-COA DEHYDROGENASE, MIT[…], PUTATIVE): 1.03
- fold change (vs vehicle control, protein LMJF.08.1222 HY[…], CONSERVED): 0.75
- fold change (vs vehicle control, protein LMJF.10.0510 GLYCEROL-3-PHOSPHATE DEH[…] ], GLYCOSOMAL): 0.75
- fold change (vs vehicle control, protein LMJF.10.0910 SMALL GTP-BINDING PROTEIN RAB11, PUTATIVE): 0.93
- fold change (vs vehicle control, protein LMJF.11.0130 NGG1 I[…] 3-LIKE PROTEIN): 0.95
- fold change (vs vehicle control, protein LMJF.11.0480 HY[…], CONSERVED): 0.79
- fold change (vs vehicle control, protein LMJF.11.1100 LANOSTEROL 14-ALPHA-DEMETHYLASE, PUTATIVE): 1.03
- fold change (vs vehicle control, protein LMJF.11.1190 40S RIBOSOMAL PROTEIN S15A, PUTATIVE): 1.06
- fold change (vs vehicle control, protein LMJF.13.1360 HY[…], CONSERVED): 0.58
- fold change (vs vehicle control, protein LMJF.14.0130 INOSINE-GUANINE […], PUTATIVE): 0.94
- fold change (vs vehicle control, protein LMJF.14.1320 SERINE HYDROXYMETHYLTRANFERASE (SHMT-S)): 1.04
- fold change (vs vehicle control, protein LMJF.15.0190 HY[…], CONSERVED): 0.96
